From publication PMC11118108
Results are given in words; binding and its absence hold for the method and conditions named. In cells and extracts the contact can be indirect. Some results given as binding are weak or reduced against the parent protein; the word gives no strength.

Amino acid sequences for entries named in this document (tags omitted).
UniProt P46934: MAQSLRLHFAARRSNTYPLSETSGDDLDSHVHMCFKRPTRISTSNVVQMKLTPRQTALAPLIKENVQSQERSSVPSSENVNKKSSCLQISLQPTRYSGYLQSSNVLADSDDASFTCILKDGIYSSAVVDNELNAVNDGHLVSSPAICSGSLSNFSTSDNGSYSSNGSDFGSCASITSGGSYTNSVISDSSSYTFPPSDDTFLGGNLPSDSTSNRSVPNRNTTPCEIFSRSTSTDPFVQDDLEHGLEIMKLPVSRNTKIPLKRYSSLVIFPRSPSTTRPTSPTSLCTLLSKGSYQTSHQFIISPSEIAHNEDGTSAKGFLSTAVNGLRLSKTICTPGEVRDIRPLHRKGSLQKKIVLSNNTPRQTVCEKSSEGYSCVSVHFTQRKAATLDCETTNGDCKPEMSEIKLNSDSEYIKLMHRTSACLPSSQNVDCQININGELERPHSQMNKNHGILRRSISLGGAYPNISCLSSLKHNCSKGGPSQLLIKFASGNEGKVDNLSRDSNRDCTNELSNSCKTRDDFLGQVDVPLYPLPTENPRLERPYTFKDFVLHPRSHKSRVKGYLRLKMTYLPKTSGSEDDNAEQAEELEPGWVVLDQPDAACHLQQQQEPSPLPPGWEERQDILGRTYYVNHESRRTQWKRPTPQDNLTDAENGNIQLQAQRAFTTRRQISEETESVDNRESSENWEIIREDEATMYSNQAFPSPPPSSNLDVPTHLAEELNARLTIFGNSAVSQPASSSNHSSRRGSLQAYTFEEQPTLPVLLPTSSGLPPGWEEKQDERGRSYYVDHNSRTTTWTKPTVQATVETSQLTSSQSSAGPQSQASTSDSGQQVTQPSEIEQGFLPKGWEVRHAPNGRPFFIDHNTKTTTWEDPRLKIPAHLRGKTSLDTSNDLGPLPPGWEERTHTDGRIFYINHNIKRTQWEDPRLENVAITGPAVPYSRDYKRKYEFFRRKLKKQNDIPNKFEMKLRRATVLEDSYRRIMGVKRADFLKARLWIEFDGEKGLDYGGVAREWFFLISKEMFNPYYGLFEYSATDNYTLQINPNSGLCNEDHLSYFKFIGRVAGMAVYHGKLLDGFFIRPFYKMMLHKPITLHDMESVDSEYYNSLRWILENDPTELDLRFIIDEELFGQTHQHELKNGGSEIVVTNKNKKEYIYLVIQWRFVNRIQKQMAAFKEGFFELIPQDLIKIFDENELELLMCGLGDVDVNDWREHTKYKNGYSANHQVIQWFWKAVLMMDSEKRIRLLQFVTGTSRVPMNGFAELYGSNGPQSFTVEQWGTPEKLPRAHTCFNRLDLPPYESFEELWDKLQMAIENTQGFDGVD

How the values were obtained:
[1] = molecular target: T1, Enoyl-CoA Hydratase Domain Containing 2 (human) (UniProt Q86YB7); test: co-IP; total cell lysates incubated with primary antibody at 4 °C overnight, Protein A + G agarose, beads rinsed with PBS, detected by western blotting; precipitating antibody and cell line not stated
T1 sequence: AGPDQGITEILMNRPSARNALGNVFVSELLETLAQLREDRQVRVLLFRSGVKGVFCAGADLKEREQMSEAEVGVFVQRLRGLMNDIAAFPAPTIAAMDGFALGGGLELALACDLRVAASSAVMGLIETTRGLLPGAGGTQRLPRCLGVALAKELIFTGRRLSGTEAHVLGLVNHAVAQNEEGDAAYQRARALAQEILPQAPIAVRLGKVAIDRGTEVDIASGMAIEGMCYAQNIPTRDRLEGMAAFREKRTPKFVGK

[2] = molecular target: T2, Methylcrotonyl-CoA Carboxylase Subunit 2 (human (endogenous in gastric cancer cell lines)) (UniProt Q9HCC0); test: as above
T2 sequence: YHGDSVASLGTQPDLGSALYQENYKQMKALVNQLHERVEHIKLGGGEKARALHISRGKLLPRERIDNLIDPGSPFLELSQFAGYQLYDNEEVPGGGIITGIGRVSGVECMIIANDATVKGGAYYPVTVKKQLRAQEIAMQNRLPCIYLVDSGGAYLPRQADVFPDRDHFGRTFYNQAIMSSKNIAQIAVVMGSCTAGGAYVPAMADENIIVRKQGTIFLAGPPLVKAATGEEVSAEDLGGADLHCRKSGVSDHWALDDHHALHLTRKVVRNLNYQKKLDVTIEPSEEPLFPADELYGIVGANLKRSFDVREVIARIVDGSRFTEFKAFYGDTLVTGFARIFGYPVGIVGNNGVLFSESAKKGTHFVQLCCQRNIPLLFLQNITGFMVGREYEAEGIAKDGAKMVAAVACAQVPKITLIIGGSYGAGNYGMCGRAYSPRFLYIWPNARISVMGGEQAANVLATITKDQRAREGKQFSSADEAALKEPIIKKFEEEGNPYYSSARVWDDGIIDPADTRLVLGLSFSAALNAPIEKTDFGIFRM

## E3 ubiquitin ligase NEDD4 (from UniProt P46934 1-1319) (enzyme)
[1]
  binding: binds
[2]
  binding: binds
